The values are deposited in ChEMBL (CHEMBL3988442, “University of Dundee, Small-Polar-MMV Screening Library” (2021)).

The filed quantity is “Percent Effect” (%).
How 0% and 100% were set is not recorded. Most values in the screen are low, and negative values occur.
This is an unselected part of the compounds tested.
Two or more numbers in one place are separate tests of the same structure; such repeats can differ widely.

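Viability assay of Plasmodium falciparum sporozoites; the read-out is not stated. The concentration is filed as 10 mM, unlikely as a test dose, so the dose is not known. Direction is inferred from retests: higher values go with lower viability. Strong results were mostly tested again. About 34,000 compounds were tested under these conditions; 0.84% (about 280) showed 50% or more at least once.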

Cc1cc(CN2CCOC(CN(C)C)C2)no1 (stereo not drawn) gave -4.762%.
Cc1noc(-c2cccnc2N(C)Cc2cscn2)n1 gave -11.68%.
CN(C)c1nc2c(c(=O)[nH]1)CCN(C(=O)c1cccc3nccnc13)C2 gave -0.4362%.
Cc1c(Br)cccc1C(=O)NCc1cnn(C)c1 gave -5.943%.
CC1(C)CC1C(=O)NS(=O)(=O)Cc1cc(-c2ccccc2)no1 (stereo not drawn) gave -2.665% and -1.153%.
COc1cccc(C(C(=O)O)N2CCCN(C3CCCC3)CC2)c1OC (stereo not drawn) gave -5.799%.
c1cncc(CN2CCCC(c3nnc(-c4cnccn4)o3)C2)c1 (stereo not drawn) gave -8.688%.
COc1ccc2[nH]cc(-c3ccnc(NC4CCCC4)n3)c2c1 gave -8.552%.
Cc1cc(-c2cnc(N3CCNC(=O)C3)nc2-c2cccnc2C)on1 gave -6.113%.
c1ccc(-c2noc(CN3CCc4c(ncn4C4CC4)C3)n2)nc1 gave 42.55% and 46.63%.
CC(=O)NCc1ccc(C(=O)N2CCCCC2Cn2cccn2)o1 (stereo not drawn) gave -0.5848%.
Cc1ccc(N(C)S(=O)(=O)c2cc(C(=O)O)cs2)cc1 gave 1.199%.
CN(CCO)Cc1cc(Cl)ccc1OCC(O)CN1CCCCCC1 (stereo not drawn) gave 8.415%.
Cc1nc(C)n(CC2CCCN2Cc2cc(C)on2)n1 (stereo not drawn) gave -1.85%.
CN(CCCN1CCOCC1)[C@@H]1c2ccccc2C2(CCNCC2)[C@H]1O gave -0.7455%.
O=C(c1cc(=O)[nH]c(=O)[nH]1)N1CCCCC1c1ccc(F)cc1 (stereo not drawn) gave 2.912%.
CCN(Cc1cccc(F)c1)Cc1nc2c(cnn2C)c(=O)[nH]1 gave 1.327%.
Cc1cc(C)n(CC2CCCCN2CCCS(N)(=O)=O)n1 (stereo not drawn) gave -1.225%.
O=C(O)C(F)(F)F.O=C(O)C(F)(F)F.O=C1CC(c2ccncc2)C2(CCN(CCc3ccccc3)CC2)N1 (stereo not drawn) gave 3.163%.
[H][C@]12CC[C@]([H])(CC(=O)NC1)N2C1CSCCSC1 gave 1.114%.
CN(Cc1ccccc1)CC(O)Cn1cnc2ccsc2c1=O (stereo not drawn) gave -7.89%.
c1ncn(CC2CN(Cc3nc(-c4ccsc4)no3)CCO2)n1 (stereo not drawn) gave 7.117%.
CC(C)c1nnc2n1CC(CNCc1ccncc1)CC2 (stereo not drawn) gave 8.511%.
CCOC(=O)CNC(=O)NCc1cccn1Cc1ccccc1F gave -6.994%.
O=C(NCc1cccnc1N1CCc2ccccc2C1)c1cnc[nH]1 gave 4.386%.
CC(=O)N1CCOC(c2c(C(=O)O)sc3ccccc23)C1 (stereo not drawn) gave -11.3%.
Cc1nc(C)c(C(=O)Nc2cnn(CC(=O)NC3CCCC3)c2)s1 gave -2.845%.
Cc1cc(C(F)(F)F)nc(C2CCCN2S(C)(=O)=O)n1 (stereo not drawn) gave 5.503%.
CCC(C(=O)N(C)C)N1CCC(c2nccn2Cc2cscn2)CC1 (stereo not drawn) gave 7.105%.
Cc1c[nH]c(C2COCCN2S(=O)(=O)c2cn[nH]c2)n1 (stereo not drawn) gave 3.085%.
CC(=O)NCC(=O)N1Cc2nccn2CC(CN(C)C(C)C)C1.O=C(O)C(F)(F)F (stereo not drawn) gave 3.03%.
CN1CCN(c2ncnc3c2c(C(=O)NC2CC2)c2ccccn23)CC1 gave 13.31%.
O=C(Cc1n[nH]c2ccccc12)N1CCC(Nc2cccnn2)CC1 gave 0%.
CN(C)[C@@H]1CCN(C(=O)CC2CC2)[C@H]1Cc1cnn(C)c1.O=C(O)C(F)(F)F gave 13.83%.
CCc1ccc(C(=O)N2CCN(CCO)CC2)o1 gave 13.16%.
[H][C@@]12CCN(C(=O)c3cccc(F)c3)[C@]1([H])CN(C(=O)c1ccsc1)C2 gave -7.357%.
[H][C@@]12CCCO[C@]1([H])[C@H](N(C)Cc1cccnc1)CN2Cc1ccccn1 gave 6.239%.
O=C(O)C1(Cc2ccccc2F)CCCN(c2ncnc3[nH]ccc23)C1 (stereo not drawn) gave -8.204% and -1.872%.
COc1cccc([C@@H]2CCN(Cc3ccc4ccccc4n3)C[C@H]2O)c1 gave 11.33%.
Cc1nccn1CC1CCCN1S(=O)(=O)Cc1cccc(C#N)c1 (stereo not drawn) gave 11.43%.
c1ccc(C2CCN(c3cncc(-n4cccn4)n3)CC2)cc1 gave -17.81%.
Cn1ncc2c1CCCN(C(=O)C1CC1)C2 gave 1.907%.
O=C(O)C(F)(F)F.O=S(=O)(C1CC1)N1CCCn2cnc(COc3cccnc3)c2C1 gave 7.799%.
Cc1cc(CN2CCN(C(=O)NC(C)c3cccs3)CC2)on1 (stereo not drawn) gave -0.1655%.
O=C(NC1CCN(C2CC2)CC1)c1cc(Cl)ccc1-n1cnnn1 gave -9.822%.
Cc1cc2c(=O)n3c(nc2s1)CCN(C(=O)c1sc(C)nc1C)CC3 gave -4.612%.
CCCc1n[nH]c(C2CN(C(=O)CCCn3cccn3)CCO2)n1 (stereo not drawn) gave -705%.
O=C(O)C(F)(F)F.[H][C@@]12CN(C(=O)c3ccccc3C)C[C@]1([H])OCCN2c1ncccn1 gave 7.251%.
Cn1cc(CN(Cc2ccccn2)Cc2ccccc2Cl)cn1 gave 3.25%.
CC1c2ncc(CN3CCN(C)CC3)n2CCN1Cc1ccccn1.O=C(O)C(F)(F)F.O=C(O)C(F)(F)F.O=C(O)C(F)(F)F.O=C(O)C(F)(F)F (stereo not drawn) gave -4.825%.
Cn1ncc2c(NC3CCCN(C(=O)C4CC4)C3)nc(C(C)(C)C)nc21 (stereo not drawn) gave -1.374%.
O=C(O)C(F)(F)F.O=C(O)C(F)(F)F.[H][C@@]12CN(Cc3ccc(C)s3)CCC[C@]1(C(=O)O)CN(CCOC)C2 gave 9.968%.
COc1cc(N2CCC3(CC2)OCC(=O)NC3C)ncn1 (stereo not drawn) gave -1.455%.
CN1C(=O)CC[C@]12CC[C@@H](NC(=O)NCc1cccnc1)CC2.O=C(O)C(F)(F)F gave -10.51%.
Cc1cccc(-c2ccc(C(=O)NCC3CCCOC3)c(=O)[nH]2)c1 (stereo not drawn) gave 10.47%.
Fc1cccc(CN2CCC3(CCN3c3ncccn3)C2)c1.O=C(O)C(F)(F)F (stereo not drawn) gave 9.879%.
CCC(Oc1ccc(N(C)S(C)(=O)=O)cc1)C(=O)NC (stereo not drawn) gave -4.71%.
COc1ccc(-c2noc(CN3CCc4cncnc4C3)n2)cc1 gave 6.925%.
Cc1cccc(CN2CCCC(c3nccs3)C2)n1 (stereo not drawn) gave 2.719%.

For reference, 5 entries once more:

c1ccc(C2CCN(c3cncc(-n4cccn4)n3)CC2)cc1 read -17.81%.
O=C(NC1CCN(C2CC2)CC1)c1cc(Cl)ccc1-n1cnnn1 read -9.822%.
O=C(O)C(F)(F)F.O=C(O)C(F)(F)F.[H][C@@]12CN(Cc3ccc(C)s3)CCC[C@]1(C(=O)O)CN(CCOC)C2 read 9.968%.
c1cncc(CN2CCCC(c3nnc(-c4cnccn4)o3)C2)c1 (stereo not drawn) read -8.688%.
Cc1cc(C)n(CC2CCCCN2CCCS(N)(=O)=O)n1 (stereo not drawn) read -1.225%.